Results: patent publication US20210070840A1 (Bristol-Myers Squibb, published 2021)
No constants are given. Whether binding was seen depends on the method and setting. Some entries that bind do so weakly or less than the wild type.

Columns and labels:
human IL-23 [1] = target: T1, human IL-23 (human, UniProt P29460 23-328; Q9NPF7 20-189); assay: size exclusion chromatography of the complex
T1 construct: Secreted from Sf9 cells for the crystal structure; One molecule is used for all three; also called Interleukin-23
T1 sequence (looked up) 1: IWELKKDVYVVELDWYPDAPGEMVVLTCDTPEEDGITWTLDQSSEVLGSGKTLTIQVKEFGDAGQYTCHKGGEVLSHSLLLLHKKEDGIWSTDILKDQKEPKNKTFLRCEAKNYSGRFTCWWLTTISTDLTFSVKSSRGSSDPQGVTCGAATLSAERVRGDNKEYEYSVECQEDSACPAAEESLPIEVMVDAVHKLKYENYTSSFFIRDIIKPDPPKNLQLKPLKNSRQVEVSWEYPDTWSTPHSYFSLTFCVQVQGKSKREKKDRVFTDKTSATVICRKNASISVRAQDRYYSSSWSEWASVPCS
T1 sequence (looked up) 2: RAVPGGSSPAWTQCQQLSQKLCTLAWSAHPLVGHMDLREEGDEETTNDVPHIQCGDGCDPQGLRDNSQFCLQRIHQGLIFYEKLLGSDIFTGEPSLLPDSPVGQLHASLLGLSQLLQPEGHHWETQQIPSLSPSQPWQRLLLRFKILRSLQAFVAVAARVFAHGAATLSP

human IL-23 [2] = target: T1, human IL-23; assay: crystal structure
human IL-23 [3] = target: T1, human IL-23; assay: crystal structure, figure legend

Measured: binding

B1: Adnectin 2 (designed binder)
chain: MGVSDVPRDLEVVAATPTSLLISWEHDYPYRRYYRITYGETGGNSPVQEFTVPKDVDTATISGLKPGVDYTITVYAVTSSYKYDMQYSPISINYRTEIDKPSQHHHHHH
notes: also called anti-IL-23 Adnectin; ATI-000929
binds: all assays above
